From article PMC10899400

Protein sequences, listed by entry. Tags and fused reporters are not part of them. Residues count along the entry.
UniProt Q07955, 1-196 Y37S/Y72S: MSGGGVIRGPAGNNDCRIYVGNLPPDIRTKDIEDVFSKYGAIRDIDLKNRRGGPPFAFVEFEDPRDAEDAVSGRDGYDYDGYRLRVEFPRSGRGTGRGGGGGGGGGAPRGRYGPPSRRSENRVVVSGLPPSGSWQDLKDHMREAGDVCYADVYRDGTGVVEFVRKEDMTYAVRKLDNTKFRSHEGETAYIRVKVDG

Target: SRSF1 RRM1-2 Y37S,Y72S (UniProt Q07955)
Test: 19F NMR
Settings: 40% HeLa nuclear extract; 2'-F at G6 and A20; NMR buffer 20 mM NaHPO4 pH 6.5, 100 mM NaCl, 1 mM beta-mercaptoethanol, 50 mM L-Arg, 50 mM L-Glu; 19F NMR of free RNA at 303 K, with or without 40% HeLa nuclear extract; recombinant protein; residues 1-196; protein details: N-terminal GB1-His-TEV, removed; label: 19F (2'-F at G6 and A20)

Sequence “UUACAGGGUUUUAGACAAAAU [RNA2 (2'-F-G6, 2'-F-A20)]” has a binding signal (PIR of G6 (A20 PIR 1)) of 0.

Construct, isoform or probe ends are uncertain for at least one entry. The direction of at least one scale is not stated here.
